# Laboratory results from article PMC8440931, “Physical and Functional Interaction of Mitochondrial Single-Stranded DNA-Binding Protein and the Catalytic Subunit of DNA Polymerase Gamma” (Frontiers in Genetics, 2021).
# Protein sequences, listed by entry. Tags and fused reporters are not part of them. Residues count along the entry.
# UniProt P02769, residues 25-607: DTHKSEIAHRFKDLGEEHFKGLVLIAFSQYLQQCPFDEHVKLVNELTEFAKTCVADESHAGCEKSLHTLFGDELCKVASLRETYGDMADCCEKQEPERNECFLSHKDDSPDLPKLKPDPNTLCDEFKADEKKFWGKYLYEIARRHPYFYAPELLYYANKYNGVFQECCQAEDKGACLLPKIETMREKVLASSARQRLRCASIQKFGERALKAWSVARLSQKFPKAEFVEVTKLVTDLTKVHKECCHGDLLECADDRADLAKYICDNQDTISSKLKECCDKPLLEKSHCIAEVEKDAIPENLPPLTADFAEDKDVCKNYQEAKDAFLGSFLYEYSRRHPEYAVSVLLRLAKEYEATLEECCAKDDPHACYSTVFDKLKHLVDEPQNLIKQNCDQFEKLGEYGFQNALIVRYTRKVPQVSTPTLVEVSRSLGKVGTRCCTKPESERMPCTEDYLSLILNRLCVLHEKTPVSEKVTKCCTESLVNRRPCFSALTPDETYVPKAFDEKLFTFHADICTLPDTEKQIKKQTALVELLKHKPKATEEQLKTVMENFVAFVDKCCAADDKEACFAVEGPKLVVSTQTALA
# No constants are given. Whether binding was seen depends on the method and setting. Some results given as binding are weak or reduced against the parent protein; the word gives no strength.
# T1: biotinylated mitochondrial single-stranded DNA-binding protein (BTN-mtSSB), wild type (human) (UniProt Q04837)
# T1 sequence (chain, biotin (conjugated; site not stated)): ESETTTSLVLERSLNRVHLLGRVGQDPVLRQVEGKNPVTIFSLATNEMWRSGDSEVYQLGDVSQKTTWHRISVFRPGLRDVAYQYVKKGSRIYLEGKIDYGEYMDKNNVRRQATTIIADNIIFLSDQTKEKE
# B1: catalytic subunit of mitochondrial DNA polymerase gamma (Pol γα) (enzyme, human, UniProt P54098 1-1239, looked up)
# chain: MSRLLWRKVAGATVGPGPVPAPGRWVSSSVPASDPSDGQRRRQQQQQQQQQQQQQPQQPQVLSSEGGQLRHNPLDIQMLSRGLHEQIFGQGGEMPGEAAVRRSVEHLQKHGLWGQPAVPLPDVELRLPPLYGDNLDQHFRLLAQKQSLPYLEAANLLLQAQLPPKPPAWAWAEGWTRYGPEGEAVPVAIPEERALVFDVEVCLAEGTCPTLAVAISPSAWYSWCSQRLVEERYSWTSQLSPADLIPLEVPTGASSPTQRDWQEQLVVGHNVSFDRAHIREQYLIQGSRMRFLDTMSMHMAISGLSSFQRSLWIAAKQGKHKVQPPTKQGQKSQRKARRGPAISSWDWLDISSVNSLAEVHRLYVGGPPLEKEPRELFVKGTMKDIRENFQDLMQYCAQDVWATHEVFQQQLPLFLERCPHPVTLAGMLEMGVSYLPVNQNWERYLAEAQGTYEELQREMKKSLMDLANDACQLLSGERYKEDPWLWDLEWDLQEFKQKKAKKVKKEPATASKLPIEGAGAPGDPMDQEDLGPCSEEEEFQQDVMARACLQKLKGTTELLPKRPQHLPGHPGWYRKLCPRLDDPAWTPGPSLLSLQMRVTPKLMALTWDGFPLHYSERHGWGYLVPGRRDNLAKLPTGTTLESAGVVCPYRAIESLYRKHCLEQGKQQLMPQEAGLAEEFLLTDNSAIWQTVEELDYLEVEAEAKMENLRAAVPGQPLALTARGGPKDTQPSYHHGNGPYNDVDIPGCWFFKLPHKDGNSCNVGSPFAKDFLPKMEDGTLQAGPGGASGPRALEINKMISFWRNAHKRISSQMVVWLPRSALPRAVIRHPDYDEEGLYGAILPQVVTAGTITRRAVEPTWLTASNARPDRVGSELKAMVQAPPGYTLVGADVDSQELWIAAVLGDAHFAGMHGCTAFGWMTLQGRKSRGTDLHSKTATTVGISREHAKIFNYGRIYGAGQPFAERLLMQFNHRLTQQEAAEKAQQMYAATKGLRWYRLSDEGEWLVRELNLPVDRTEGGWISLQDLRKVQRETARKSQWKKWEVVAERAWKGGTESEMFNKLESIATSDIPRTPVLGCCISRALEPSAVQEEFMTSRVNWVVQSSAVDYLHLMLVAMKWLFEEFAIDGRFCISIHDEVRYLVREEDRYRAALALQITNLLTRCMFAYKLGLNDLPQSVAFFSAVDIDRCLRKEVTMDCKTPSNPTGMERRYGIPQGEALDIYQIIELTKGSLEKRSQPGP
# What was measured:
# [1] = biological target: T1, biotinylated mitochondrial single-stranded DNA-binding protein (BTN-mtSSB), wild type (human); assay: BLI; BTN-mtSSB or BTN-mtSSB_(l2.3) (600 nM) saturated on streptavidin sensors; Pol γα as analyte at increasing concentrations; Ac buffer: 50 mM Tris-HCl pH 8.0, 10 mM KCl, 4 mM MgCl2, 0.4 mg/ml BSA, 10 mM DTT; 30°C, 1,000 rpm; 1:1 interaction model; both purified
# [2] = biological target: T1, biotinylated mitochondrial single-stranded DNA-binding protein (BTN-mtSSB), wild type (human); assay: BLI; BTN-mtSSB on streptavidin sensors; 120 nM Pol γα alone, replaced by, or preincubated with 120 nM Pol γβ2; both purified
# [3] = biological target: T1, biotinylated mitochondrial single-stranded DNA-binding protein (BTN-mtSSB), wild type (human); assay: BLI; BTN-mtSSB on streptavidin sensors; association response of 120 nM Pol γα in the presence of increasing KCl concentrations; both purified
# [4] = biological target: T1, biotinylated mitochondrial single-stranded DNA-binding protein (BTN-mtSSB), wild type (human); assay: BLI; BTN-mtSSB sensors first incubated in solutions with increments of 43-nt-long ssDNA oligomers, then placed into the Pol γα solution; both purified
Molecule,binding [1],binding [2],binding [3],binding [4]
bovine serum albumin (BSA) (from UniProt P02769 25-607),no binding (tested: 0.4mg/ml),–,–,–
B1,–,binds,no binding (condition: increasing KCl concentrations),binds
